Measured data: PubChem BioAssay AID686937 (Drosophila RNAi Screening Center, 2013)
Screen: 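Knock-downs that reduce output of a secreted reporter enzyme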 (primary screen). Cells: Drosophila S2 cells expressing secreted horseradish peroxidase. Reagents: long dsRNA against Drosophila genes. Time to read-out: about 5.5 days (5 days dsRNA, then 12 h reporter induction). Treatment: reporter expression induced after 5 days of dsRNA, read 12 h later; inducer not stated. Measurement: 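Chemiluminescent measurement of peroxidase in the medium 12 h after reporter induction, following 5 days of dsRNA, given as a z-score per plate; higher means more secretion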. Direction: z-score: higher = more reporter secreted into medium.
The deposit covers about 23,000 reagents; shown is a random part of those with a known target gene and a result. 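Reduced-secretion tags in replicate 1 do not always agree with the z-scores; no criterion for assigning the tags was given.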 The numbers tell different reagents against one gene apart. The record does not give: the amount of reagent.

gene	reagent	z-score, replicate 1	z-score, replicate 2	z-score, replicate 3	z-score, replicate 4	phenotype, replicate 1
l(3)76BDm (GeneID 40140)	1	-0.18	-0.28			
Lapsyn (GeneID 37418)	1	0	0.11			
shf (GeneID 31617)	1	0.24	0.48			
CG31300 (GeneID 326132)	1	0.3	0.28			
CG42788 (GeneID 41817)	1	0.31	0.46			
CG42788 (GeneID 41817)	2	0.34	0.09			
CG42788 (GeneID 41817)	3	0.47	0.43			
CG18731 (GeneID 59246)	1	0.23	0.17			
CG4502 (GeneID 34002)	1	-0.69	-1.15			
ci (GeneID 43767)	1	0.31	0.31			
Herc4 (GeneID 38151)	1	0.47	0.06			
grsm (GeneID 41587)	1	0.4	0.46			
grsm (GeneID 41587)	2	0.26	0.28			
Top3beta (GeneID 31565)	1	0.63	0.47			
CG3713 (GeneID 50365)	1	-0.01	0.22			
fus (GeneID 44095)	1	0.24	0.49			
fus (GeneID 44095)	2	0.62	0.38			
Kaz-m1 (GeneID 43154)	1	0.35	0.47			
side-II (GeneID 3346206)	1	0.48	0.09			
side-II (GeneID 3346206)	2	0.71	0.17			
side-II (GeneID 3346206)	3	0.24	0.29			
side-II (GeneID 3346206)	4	0.24	0.2	0.45	0.03	
side-II (GeneID 3346206)	5	0.64	0.32	0.7	1.06	
side-II (GeneID 3346206)	6	1.26	1.44			
CG8565 (GeneID 32538)	1	0.51	0.26			
kis (GeneID 33185)	1	0.29	0.38			
kis (GeneID 33185)	2	0.04	0.05			
kis (GeneID 33185)	3	0.31	0.21			
Dnaaf6 (GeneID 39598)	1	0.25	0.11			
CG31886 (GeneID 326170)	1	0.45	0.38			
rdx (GeneID 41704)	1	-1.72	-2.96			reduced secretion
rdx (GeneID 41704)	2	0.35	0.14			
CecC (GeneID 43599)	1	0.35	-0.01			
CG2574 (GeneID 32190)	1	0	-0.31			
CG1632 (GeneID 31763)	1	0.23	0.27			
CG1632 (GeneID 31763)	2	0.24	0.66			
CG13671 (GeneID 38932)	1	0.09	0.2			
CG4666 (GeneID 31541)	1	0.28	0.49			
CG15143 (GeneID 35062)	1	0.29	0.1			
CG42369 (GeneID 33894)	1	0.72	0.52			
eEF1alpha1 (GeneID 36271)	1	-2.52	-1.49			reduced secretion
CG15358 (GeneID 33366)	1	0.13	0.34			
msl-2 (GeneID 33565)	1	0.23	0.37			

Look-ups from the list.
msl-2 (GeneID 33565), z-score, replicate 2 = 0.37
Result for CG15358 (GeneID 33366) in “z-score, replicate 1”: 0.13
Value for fus (GeneID 44095) #2 under “z-score, replicate 1”: 0.62
Under “z-score, replicate 1”, side-II (GeneID 3346206) #4 is entered as 0.24
Value of side-II (GeneID 3346206) #5 under “z-score, replicate 2”: 0.32
kis (GeneID 33185) #3, z-score, replicate 1 → 0.31

The list goes on:
gene	reagent	z-score, replicate 1	z-score, replicate 2	z-score, replicate 3	z-score, replicate 4	phenotype, replicate 1
GCS2alpha (GeneID 49953)	1	-1.69	-1.33			
CG43896 (GeneID 39360)	1	0.3	0.27			
CG43896 (GeneID 39360)	2	0.24	0.52			
Elp3 (GeneID 33649)	1	-0.48	-0.16			
CG32052 (GeneID 326184)	1	0.41	0.27			
TH1 (GeneID 32607)	1	0.69	0.6			
Aven (GeneID 32215)	1	0.52	0.52			
CG1738 (GeneID 32075)	1	0.6	0.15			
Hmu (GeneID 43294)	1	0.23	-0.09			
dia (GeneID 35340)	1	-0.2	-0.13			
CG11381 (GeneID 31067)	1	0.23	0.21			
Prosbeta4R1 (GeneID 33449)	1	0.13	0.04			
CG3513 (GeneID 33590)	1	0.08	0.31			
Lkb1 (GeneID 41673)	1	0.65	0.62			
CG42709 (GeneID 39453)	1	0.32	0.34			
CG11127 (GeneID 35673)	1	0.05	0.18			
mthl6 (GeneID 38839)	1	0.21	0.34			
CG8814 (GeneID 33492)	1	0.24	0.17			
CG42269 (GeneID 38689)	1	0.13	0.41			
CG42269 (GeneID 38689)	2	0.38	0.57			
CG14537 (GeneID 34072)	1	0.26	0.4			
CG7384 (GeneID 34447)	1	0.27	0.25			
MED14 (GeneID 38073)	1	0.17	0.29			
Taf5 (GeneID 47900)	1	0.09	-0.14			
lark (GeneID 38811)	1	0.07	-0.22			
nrv2 (GeneID 33953)	1	-0.61	0.11			
nrv2 (GeneID 33953)	2	0.12	0.13			
CG43071 (GeneID 12798340)	1	0.38	0.25			
CG17896 (GeneID 30995)	1	0.08	0.11			
SLC5A11 (GeneID 34117)	1	0.3	0.13			
Buffy (GeneID 36251)	1	0.37	0.43			
CG5498 (GeneID 40250)	1	0.22	0.42			
Jon65Ai (GeneID 38685)	1	0.32	0.5			
shop (GeneID 32878)	1	0.25	0.14			
Polr3I (GeneID 32678)	1	0.07	-0.32			
CG7102 (GeneID 34079)	1	0.28	0.26			
CG7102 (GeneID 34079)	2	0.7	0.48			
scpr-B (GeneID 41357)	1	0.32	0.43			
CG14488 (GeneID 37030)	1	0.56	-0.01			
dec (GeneID 31691)	1	0.09	-0.05			
dec (GeneID 31691)	2	-0.09	-0.08			
rho-7 (GeneID 36281)	1	0.32	0.47			
CSN5 (GeneID 42000)	1	0.29	0.05			
CSN5 (GeneID 42000)	2	-0.45	0.38			
Sik3 (GeneID 37152)	1	0.22	0.34			
Sik3 (GeneID 37152)	2	-1.71	-1.22			reduced secretion
CG9676 (GeneID 32647)	1	0.39	0.44			
CG15059 (GeneID 32806)	1	0.43	0.35			
Spn28Da (GeneID 34082)	1	0.38	0.23			
Tao (GeneID 32948)	1	0.1	0.34	0.49	0.01	
Tao (GeneID 32948)	2	0.69	0.24	-0.17	0.3	
Tao (GeneID 32948)	3	-0.58	-0.05			
CG32117 (GeneID 317864)	1	-0.47	-0.46			
CG11699 (GeneID 32101)	1	0.05	0.07			
GluProRS (GeneID 42834)	1	0.13	-1.25			
crol (GeneID 34592)	1	0.03	0.2			
crol (GeneID 34592)	2	0.12	-0.29			
CG32280 (GeneID 317952)	1	0.53	0.28			
CG11977 (GeneID 41076)	1	0	0			
PIG-Wb (GeneID 38220)	1	0.16	0.14			
Frl (GeneID 39561)	1	0.63	0.41			
Frl (GeneID 39561)	2	0.13	0.09			
Frl (GeneID 39561)	3	-1.41	0.06	0.29	-0.78	
